Holding throughout (test): MIC, micro dilution (NCCLS M7-A5)
The test system of one assay is S. aureus ATCC25923 MS. The assay is classed as cell-based. The settings on record: Staphylococcus aureus, Table 1.
The test system of assay [1] is S. pneumoniae ATCC49619 PR. The assay is classed as cell-based. The settings on record: Streptococcus pneumoniae, Table 1, 5% CO2.
A further assay has as its system E. faecium ATCC51559 MDR. The assay is classed as cell-based. Conditions: Enterococcus faecium, Table 1.
The subject of another assay is S. aureus LNZ-R 432. The assay is classed as cell-based. The settings on record: Staphylococcus aureus, LNZR432, Table 1.
A further assay has as its system H. influenzae ATCC49247. The format is cell-based, Haemophylus influenzae. Conditions: Haemophilus influenzae, Table 1.
Assay [2] concerns B. fragilis sp. fragilis ATCC25285. The assay is classed as cell-based. Conditions: Bacteroides fragilis, Table 1, Brucella Blood medium for anaerobic strains.
Assay [3] concerns Moraxella catarrhalis HCI-78. The assay is classed as cell-based. Conditions: HCI78, Table 1, 5% CO2.
Another assay concerns E. faecium LNZ-R LR-4. The format is cell-based. Conditions: Enterococcus faecium, Table 1.

≈ marks a conversion by molar mass, not a printed value.

Regarding `CC(=O)NC[C@H]1CN(c2cc(F)c(N3CCC(C#N)C3)c(F)c2)C(=O)O1` (stereo partly drawn) [Ex. 2, N-{(5S)-3-[3,5-difluoro-4-(3-cyanopyrrolidin-1-yl)phenyl]-2-oxo-5-oxazolidinylmethyl}acetamide], the MIC against S. aureus ATCC25923 MS came to 0.25 µg/mL (≈ 0.686 µM); in assay [1], 0.125 µg/mL (≈ 0.343 µM); against E. faecium ATCC51559 MDR it was 0.125 µg/mL (≈ 0.343 µM); against S. aureus LNZ-R 432, 64 µg/mL (≈ 176 µM); with H. influenzae ATCC49247, 2 µg/mL (≈ 5.49 µM); in assay [2], 0.125 µg/mL (≈ 0.343 µM). Also, the results for the MIC (in assay [3]; in the assay with E. faecium LNZ-R LR-4) were 0.25 µg/mL (≈ 0.686 µM) and 4 µg/mL (≈ 11 µM), respectively.

The record behind these values is patent US20110152333A1, “3-CYANOPYRROLIDINYL-PHENYL-OXAZOLIDINONES AS ANTIBACTERIAL AGENTS” (FERRER INTERNACIONAL, S.A., priority 2008, published 2011).
